The list shows a part of the results. Further columns of the screen follow, without active or inactive calls. The list favours compounds with an active or inconclusive main result. Potencies come from curve fits of mixed quality, noted in brackets.
Assay: qHTS Assay for Lipid Storage Modulators in Drosophila S3 Cells;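 as to cell number change: cells counted by Cell Tracker Red CMTPX staining in the red channel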
Conditions: BODIPY lipid droplet fluorescence, 18-24 h; for cell number change: measured here: cell count max response, cells fed with added oleic acid
Summary of the method: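 Laser-scanning cytometry quantifies lipid droplet accumulation (500–530 nm total intensity; droplet/cell object ratio) in oleic acid-fed (400 uM added) Drosophila S3 cells treated with a concentration series. 20 uM Triacsin C defined 100% inhibition.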

[1] = measured here: lipid fluorescence (Fed channel) AC50, cells fed with added oleic acid
[2] = measured here: cell number channel AC50, cells fed with added oleic acid

| Structure (SMILES) | cell number change | AC50 [1] | AC50 [2] |
| --- | --- | --- | --- |
| CCCCn1c(N)c(N(CC(C)C)C(=O)C2CC(=O)N(Cc3ccccc3)C2)c(=O)[nH]c1=O (stereo not drawn) | 25% | – | – |
| CCOC(=O)c1c(NC(=O)CSc2nnc(-c3ccc(C)cc3)o2)sc(C(C)=O)c1C | -25.8% | – | – |
| CCCC(=O)Nc1cccc(NC(=O)c2ccc3c(c2)OCCO3)c1 | -0.786% | 29.1 µM [rising, single point] | – |
| CCN1CCN(Cc2ccc(NC(=O)c3cc(NC(=O)c4cnnc5ccccc45)cc(OC)c3)cc2C(F)(F)F)CC1 | 22% | 23.1 µM [rising, partial curve] | – |
| Nc1c(N2CCCC2)cc(Cl)c2nonc12 | -19.1% | 0.00461 µM [falling, full curve, poor fit] | – |
| O=C(NS(=O)(=O)c1ccccc1[N+](=O)[O-])c1ccccc1 | 11.6% | 16.4 µM [rising, single point] | – |
| N#CCSc1nnc2c(Cl)cc(Cl)cn12 | 27.6% | – | 0.82 µM [rising, full curve, poor fit] |
| CC(C)(C)S(=O)(=O)c1nc2ccccc2s1 | -38.6% | – | 2.31 µM [falling, full curve, poor fit] |
| [NH-]c1ncnc2c1N=C[N+]2=CC=CCO | 11.6% | 1.84 µM [rising, partial curve, poor fit] | 0.00517 µM [rising, full curve, poor fit] |
| Cc1c(C#N)c(N=CN(C)C)c(C(=O)c2ccc(Br)cc2)n1-c1ccc(Cl)cc1 | 128% | 0.58 µM [falling, single point] | 29.1 µM [rising, single point] |
| CCC(=O)Nc1cc(-c2nn(C)c(=O)c3ccccc23)ccc1N1CCOCC1 | – | 4.61 µM [rising, partial curve] | 2.91 µM [rising, single point] |
| Cc1ccc(NC(=O)CCCC(=O)O)c(Br)c1 | -34.1% | 13 µM [falling, partial curve] | 6.51 µM [falling, partial curve] |
| Cc1cccc(C)c1NC(=O)CN1CCN(C(=O)C2CCC2)CC1 | 26% | – | – |
| COc1ccc(/C=C/C(=O)NCCc2c[nH]c3ccccc23)cc1OC | -42.8% | 9.2 µM [falling, single point] | 9.2 µM [falling, single point] |
| O=C(NCC1COc2ccccc2O1)c1ccc(NC(=O)c2ccco2)cc1 (stereo not drawn) | -2.73% | 6.51 µM [rising, single point] | – |
| O=C(O)c1cccc(NC(=S)N/N=C/c2cccnc2)c1 | -29.6% | – | – |
| CCOC(=O)Cn1c(=O)oc2cc(S(=O)(=O)NCC3CCCO3)ccc21 (stereo not drawn) | -8.16% | 0.651 µM [falling, single point] | 0.103 µM [falling, full curve, poor fit] |
| CCOC(=O)Cc1csc(NC(=O)c2cccs2)n1 | 3.89% | 2.59 µM [rising, full curve] | – |
| CN(CC(=O)Nc1cccc(F)c1)C(=O)c1cn(-c2ccccc2)nc1-c1ccc(F)cc1 | 0.407% | – | – |

A draw from above in order of SMILES length, high to low.

| Structure (SMILES) | cell number change | AC50 [1] | AC50 [2] |
| --- | --- | --- | --- |
| O=C(NCC1COc2ccccc2O1)c1ccc(NC(=O)c2ccco2)cc1 (stereo not drawn) | -2.73% | 6.51 µM [rising, single point] | – |
| O=C(NS(=O)(=O)c1ccccc1[N+](=O)[O-])c1ccccc1 | 11.6% | 16.4 µM [rising, single point] | – |
| CC(C)(C)S(=O)(=O)c1nc2ccccc2s1 | -38.6% | – | 2.31 µM [falling, full curve, poor fit] |

(listing goes on)

| Structure (SMILES) | cell number change | AC50 [1] | AC50 [2] |
| --- | --- | --- | --- |
| Cc1ccc2nc(SCc3nc4ccccc4c(=O)[nH]3)[nH]c2c1 | 23.7% | 0.0116 µM [rising, full curve, poor fit] | – |
| Cc1ccc([N+](=O)[O-])c2c1C(N1CCCC1)C(C)(C)O2 (stereo not drawn) | 68.3% | 5.17 µM [rising, full curve, poor fit] | – |
| Cc1ccccc1NC(=O)c1ccc2c(c1)C(=O)N(CCC(C)C)C2=O | 103% | 18.4 µM [rising, partial curve] | 6.51 µM [rising, partial curve] |
| Cc1nc2c(=O)oc3ccccc3c2n1-c1ccccc1 | – | 3.66 µM [rising, partial curve, poor fit] | – |
| Cc1c(NC(=O)CSc2nnnn2-c2ccc(F)cc2)c(=O)n(-c2ccccc2)n1C | 0.281% | – | – |
| CN1CCNC(=O)C1CC(=O)NCCc1ccccc1F (stereo not drawn) | -24.1% | 25.9 µM [falling, partial curve, poor fit] | – |
| CC1CC(C)(C)NC(=S)N1CCC(=O)N1CCN(Cc2ccccc2)CC1 (stereo not drawn) | -69.6% | 23.1 µM [falling, partial curve, poor fit] | 0.326 µM [falling, partial curve, poor fit] |
| Fc1ccc(-n2c(-c3ccc4c(c3)OCO4)n[nH]c2=S)cc1Cl | 1.99% | 0.517 µM [rising, partial curve, poor fit] | – |
| CC(=O)Nc1nc(C)c(-c2csc(Nc3cccc(C(C)=O)c3)n2)s1 | -20.3% | 29.1 µM [falling, single point] | – |
| CC(OC(=O)[C@H](C)NC(=O)c1ccccc1Cl)C(=O)NCc1ccc2c(c1)OCO2 (stereo partly drawn) | 9.5% | – | – |
| COc1cc(NS(=O)(=O)c2ccc3c(c2)n(C)c(=O)n3C)cc(OC)c1 | 53.7% | – | 2.59 µM [rising, partial curve] |
| COc1ccc(-n2c(-c3ccc(Br)cc3)c[n+]3c2SC(C)C3)cc1 (stereo not drawn) | -35.7% | 1.84 µM [falling, full curve, poor fit] | 29.1 µM [falling, single point] |
| CC1CC(C)(C)NC(=S)N1CC(=O)N1CCN(Cc2ccccc2)CC1 (stereo not drawn) | -95.3% | – | – |
| C/C(=C/c1ccccc1)C(=O)N1CCN(c2ccc(F)cc2)CC1 | 19.6% | 29.1 µM [rising, single point] | – |
| Clc1ccc(CO/N=C/c2c(-c3ccccc3)nc3n2CCS3)c(Cl)c1 | 24.3% | 23.1 µM [rising, single point] | – |
| Cc1nonc1NC(=O)CSc1nc(C23CC4CC(CC(C4)C2)C3)nc2ccccc12 | 22.2% | 29.1 µM [rising, single point] | – |
| CN(C(=O)c1ccccc1Cl)c1ccccc1C(=O)NCCc1ccccc1 | – | 29.1 µM [falling, single point] | 2.59 µM [falling, partial curve] |
| CC1CN(S(=O)(=O)c2ccc(Cl)c(C(F)(F)F)c2)CC(C)O1 (stereo not drawn) | – | 0.058 µM [falling, full curve, poor fit] | – |
| Fc1ccc(CSc2nc3ccccc3[nH]2)c2ccccc12 | 11.4% | 11.6 µM [rising, partial curve] | – |

| Structure (SMILES) | cell number change | AC50 [1] | AC50 [2] |
| --- | --- | --- | --- |
| O[C@@H](c1cc(C(F)(F)F)nc2c(C(F)(F)F)cccc12)[C@H]1CCCCN1 | -35.7% | 13 µM [falling, partial curve] | 16.4 µM [falling, partial curve, poor fit] |
| CN(C)C(=O)c1ccc(Nc2ncnc3sc4c(c23)CCCCC4)cc1 | 11.7% | 29.1 µM [falling, single point] | – |
| c1ccc2nc(N3CCN(Cc4ccc5c(c4)OCO5)CC3)cnc2c1 | -24.3% | 2.59 µM [falling, partial curve, poor fit] | 1.84 µM [falling, full curve, poor fit] |
| COc1ccc(C(=O)Nc2ccc3nc(N4CCOCC4)sc3c2)cc1OC | 0.625% | – | – |
| COc1ccc(Cn2nnnc2C(c2cc3ccc(OC)cc3[nH]c2=O)N2CCC(C)CC2)cc1 (stereo not drawn) | 8.49% | – | 5.8 µM [rising, single point] |
| Cc1ccc(-n2nc3c(=O)n(C(C)C(=O)NCc4ccco4)nc(C)c3c2C)cc1 (stereo not drawn) | 7.63% | 6.51 µM [rising, single point] | – |
| Cc1ccc(N2CC(C(=O)Nc3ccc(S(=O)(=O)Nc4nccs4)cc3)CC2=O)cc1C (stereo not drawn) | -11.1% | 0.291 µM [falling, partial curve, poor fit] | – |
| COc1cccc(C(C2=C(O)CC(C)(C)CC2=O)C2C(=O)CC(C)(C)CC2=O)c1 (stereo not drawn) | -31.3% | 3.26 µM [falling, full curve] | 2.59 µM [falling, full curve] |
| Cc1[nH]c2ccccc2c1C(=O)NS(=O)(=O)Nc1ccc(F)cc1 | – | 0.731 µM [rising, single point] | 6.51 µM [falling, single point] |
| NS(=O)(=O)c1ccc(CNC(=O)Cn2nc(C(F)F)cc2C(F)F)cc1 | 5.49% | 6.51 µM [rising, partial curve, poor fit] | 7.31 µM [rising, single point] |
| CCc1nnc(NC(=O)CSc2nnc(Cc3ccc(OC)cc3)o2)s1 | -12.2% | 0.184 µM [rising, full curve, poor fit] | – |
| CN1CCN(CCCNC(=O)c2ccc(/C=C3\Sc4ccccc4N(Cc4ccc(F)cc4)C3=O)cc2)CC1 | -28.7% | 23.1 µM [falling, single point] | – |
| COc1ccccc1-n1c(SCC(=O)NC2CCS(=O)(=O)C2)nc2ccccc2c1=O (stereo not drawn) | 13% | 6.51 µM [falling, single point] | – |
| O=c1c2ccccc2nnn1CSc1nnc(C2COc3ccccc3O2)n1-c1ccccc1 (stereo not drawn) | -2.38% | – | – |
| CCCN(CC(=O)Nc1ccccc1C)C(=O)c1ccc(-c2ccccc2)cc1 | -10.8% | 3.66 µM [falling, full curve] | – |
| Oc1ccc(-c2csc(Nc3ccccn3)n2)cc1O | -58.5% | 6.51 µM [falling, full curve, poor fit] | 20.6 µM [falling, partial curve] |
| O=S(=O)(Cc1ccccc1)N1CCN(c2ncccn2)CC1 | 20.5% | – | – |
| CCOC(=O)Cn1c2c(c(=N)c3ccccc31)CCC2 | -97.7% | 29.1 µM [rising, single point] | 29.1 µM [falling, partial curve, poor fit] |
